Drawing on the supplement of paper PMC10849652, this text covers log2 fold change for 36 targets.

Amino acid sequences for entries named in this document (tags omitted). A change or cut given only in a name is not applied to a line headed by its entry.
UniProt Q9BZM5, whole entry, looked up: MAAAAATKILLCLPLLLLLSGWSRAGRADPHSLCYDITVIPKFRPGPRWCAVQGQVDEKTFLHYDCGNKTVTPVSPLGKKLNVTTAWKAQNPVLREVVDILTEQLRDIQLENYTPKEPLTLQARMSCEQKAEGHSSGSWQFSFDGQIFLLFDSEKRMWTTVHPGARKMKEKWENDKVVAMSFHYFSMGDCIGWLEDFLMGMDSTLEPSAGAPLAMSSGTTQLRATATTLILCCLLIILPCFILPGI
UniProt Q9Y5J1: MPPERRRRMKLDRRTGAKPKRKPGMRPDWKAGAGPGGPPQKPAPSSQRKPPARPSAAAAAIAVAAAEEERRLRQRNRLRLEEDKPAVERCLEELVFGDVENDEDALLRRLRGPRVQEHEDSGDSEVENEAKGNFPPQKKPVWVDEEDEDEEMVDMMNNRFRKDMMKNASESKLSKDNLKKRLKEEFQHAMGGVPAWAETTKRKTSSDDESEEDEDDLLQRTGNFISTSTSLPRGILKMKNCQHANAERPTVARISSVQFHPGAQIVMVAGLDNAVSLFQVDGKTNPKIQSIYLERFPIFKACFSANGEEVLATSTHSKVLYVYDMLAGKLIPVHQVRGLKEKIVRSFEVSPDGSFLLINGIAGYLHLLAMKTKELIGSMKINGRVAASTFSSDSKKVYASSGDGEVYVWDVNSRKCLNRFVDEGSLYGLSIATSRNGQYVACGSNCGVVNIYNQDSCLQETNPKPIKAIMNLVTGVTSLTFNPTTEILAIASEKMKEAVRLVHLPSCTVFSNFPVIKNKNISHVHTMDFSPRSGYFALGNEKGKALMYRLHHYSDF
UniProt Q9H1J1: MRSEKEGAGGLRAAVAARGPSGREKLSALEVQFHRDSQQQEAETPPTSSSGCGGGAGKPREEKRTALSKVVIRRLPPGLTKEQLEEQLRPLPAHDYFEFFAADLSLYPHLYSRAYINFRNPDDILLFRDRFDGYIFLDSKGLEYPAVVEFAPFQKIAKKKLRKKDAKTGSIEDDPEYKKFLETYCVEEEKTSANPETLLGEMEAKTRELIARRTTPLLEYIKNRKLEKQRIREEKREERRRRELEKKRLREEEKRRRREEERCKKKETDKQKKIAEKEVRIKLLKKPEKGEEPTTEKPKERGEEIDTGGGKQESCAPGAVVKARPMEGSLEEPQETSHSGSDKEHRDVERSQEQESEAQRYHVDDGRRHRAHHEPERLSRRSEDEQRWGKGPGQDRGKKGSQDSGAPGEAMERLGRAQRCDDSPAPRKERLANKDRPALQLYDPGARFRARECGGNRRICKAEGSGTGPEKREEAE
UniProt P13051, whole entry, looked up: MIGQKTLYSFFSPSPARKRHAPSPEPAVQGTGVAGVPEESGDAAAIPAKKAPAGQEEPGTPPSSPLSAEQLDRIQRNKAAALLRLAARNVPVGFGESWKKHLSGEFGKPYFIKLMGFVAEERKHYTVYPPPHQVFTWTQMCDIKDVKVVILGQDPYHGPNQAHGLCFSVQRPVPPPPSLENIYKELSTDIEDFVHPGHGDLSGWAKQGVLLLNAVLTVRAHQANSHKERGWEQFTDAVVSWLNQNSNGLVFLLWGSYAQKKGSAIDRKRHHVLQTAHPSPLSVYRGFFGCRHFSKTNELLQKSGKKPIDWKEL
UniProt P61960, whole entry, looked up: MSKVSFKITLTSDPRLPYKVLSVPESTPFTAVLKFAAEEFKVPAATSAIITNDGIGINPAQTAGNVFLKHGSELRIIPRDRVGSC
UniProt O00124: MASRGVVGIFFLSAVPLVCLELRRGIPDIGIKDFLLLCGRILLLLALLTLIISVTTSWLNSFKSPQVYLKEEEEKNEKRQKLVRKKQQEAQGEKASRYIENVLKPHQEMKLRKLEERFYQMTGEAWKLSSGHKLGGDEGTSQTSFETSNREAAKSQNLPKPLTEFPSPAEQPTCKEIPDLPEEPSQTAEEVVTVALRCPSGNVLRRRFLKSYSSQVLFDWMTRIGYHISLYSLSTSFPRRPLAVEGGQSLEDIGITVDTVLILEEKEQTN
UniProt Q9BZM6: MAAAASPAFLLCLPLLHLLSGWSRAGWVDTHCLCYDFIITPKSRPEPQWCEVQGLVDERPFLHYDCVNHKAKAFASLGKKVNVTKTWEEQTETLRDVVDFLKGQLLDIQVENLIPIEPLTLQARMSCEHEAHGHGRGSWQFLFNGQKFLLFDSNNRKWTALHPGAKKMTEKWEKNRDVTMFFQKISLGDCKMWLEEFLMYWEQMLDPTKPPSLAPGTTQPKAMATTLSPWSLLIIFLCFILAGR
UniProt Q6PHR2: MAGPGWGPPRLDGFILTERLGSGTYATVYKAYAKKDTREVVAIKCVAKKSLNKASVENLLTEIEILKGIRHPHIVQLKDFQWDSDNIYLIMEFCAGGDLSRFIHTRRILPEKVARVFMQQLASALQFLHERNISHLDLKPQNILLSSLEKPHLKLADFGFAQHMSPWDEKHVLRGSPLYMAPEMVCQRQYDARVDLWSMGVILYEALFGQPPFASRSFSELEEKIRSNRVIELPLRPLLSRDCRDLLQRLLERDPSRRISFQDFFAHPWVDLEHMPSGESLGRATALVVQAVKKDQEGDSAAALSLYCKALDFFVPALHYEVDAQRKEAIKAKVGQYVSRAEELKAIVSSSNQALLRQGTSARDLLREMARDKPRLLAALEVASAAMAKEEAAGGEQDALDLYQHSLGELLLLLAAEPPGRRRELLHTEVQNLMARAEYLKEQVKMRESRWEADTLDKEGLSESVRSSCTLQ
UniProt Q8IWV7: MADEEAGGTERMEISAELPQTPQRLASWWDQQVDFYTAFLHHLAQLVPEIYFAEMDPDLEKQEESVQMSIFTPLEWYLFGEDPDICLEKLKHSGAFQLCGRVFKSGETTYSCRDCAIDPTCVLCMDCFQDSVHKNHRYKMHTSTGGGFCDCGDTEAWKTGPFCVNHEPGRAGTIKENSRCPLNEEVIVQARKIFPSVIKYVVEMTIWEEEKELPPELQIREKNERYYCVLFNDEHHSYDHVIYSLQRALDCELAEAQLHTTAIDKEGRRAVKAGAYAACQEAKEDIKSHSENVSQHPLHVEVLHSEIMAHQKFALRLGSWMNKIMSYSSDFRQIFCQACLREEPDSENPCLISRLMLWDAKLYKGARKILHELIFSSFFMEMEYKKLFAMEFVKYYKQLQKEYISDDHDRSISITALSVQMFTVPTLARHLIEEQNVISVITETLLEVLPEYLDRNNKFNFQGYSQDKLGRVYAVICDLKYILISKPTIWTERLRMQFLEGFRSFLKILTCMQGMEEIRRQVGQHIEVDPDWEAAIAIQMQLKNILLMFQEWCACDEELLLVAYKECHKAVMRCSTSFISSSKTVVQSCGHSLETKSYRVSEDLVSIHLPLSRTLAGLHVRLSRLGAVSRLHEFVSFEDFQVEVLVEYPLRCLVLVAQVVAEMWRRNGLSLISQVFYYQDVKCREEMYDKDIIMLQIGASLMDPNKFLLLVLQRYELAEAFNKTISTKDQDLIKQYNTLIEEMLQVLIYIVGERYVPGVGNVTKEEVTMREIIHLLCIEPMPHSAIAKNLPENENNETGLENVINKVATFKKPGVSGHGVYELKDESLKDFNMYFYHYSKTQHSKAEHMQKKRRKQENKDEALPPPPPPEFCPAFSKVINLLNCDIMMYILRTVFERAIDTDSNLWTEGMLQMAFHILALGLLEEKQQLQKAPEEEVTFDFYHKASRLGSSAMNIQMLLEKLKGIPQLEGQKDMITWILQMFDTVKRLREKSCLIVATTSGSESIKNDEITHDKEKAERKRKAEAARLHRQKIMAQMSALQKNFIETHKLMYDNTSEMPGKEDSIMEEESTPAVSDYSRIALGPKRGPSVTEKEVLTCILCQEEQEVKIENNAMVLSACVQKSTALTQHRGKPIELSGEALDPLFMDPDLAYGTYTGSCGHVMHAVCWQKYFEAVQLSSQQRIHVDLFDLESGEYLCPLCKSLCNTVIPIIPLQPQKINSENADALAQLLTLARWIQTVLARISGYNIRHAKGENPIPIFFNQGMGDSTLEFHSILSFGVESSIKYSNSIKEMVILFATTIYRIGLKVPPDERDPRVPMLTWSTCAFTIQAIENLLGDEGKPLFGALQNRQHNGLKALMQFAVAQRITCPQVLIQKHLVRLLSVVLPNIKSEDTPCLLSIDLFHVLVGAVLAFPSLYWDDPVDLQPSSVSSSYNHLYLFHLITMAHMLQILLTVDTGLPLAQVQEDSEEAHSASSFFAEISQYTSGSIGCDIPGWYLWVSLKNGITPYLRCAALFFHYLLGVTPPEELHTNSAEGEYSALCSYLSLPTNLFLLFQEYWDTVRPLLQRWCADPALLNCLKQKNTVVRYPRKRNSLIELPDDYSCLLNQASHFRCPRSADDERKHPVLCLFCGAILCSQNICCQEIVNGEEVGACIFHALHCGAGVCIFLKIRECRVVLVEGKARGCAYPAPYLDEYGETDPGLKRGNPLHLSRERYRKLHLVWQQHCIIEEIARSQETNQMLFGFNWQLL
UniProt P62068, whole entry, looked up: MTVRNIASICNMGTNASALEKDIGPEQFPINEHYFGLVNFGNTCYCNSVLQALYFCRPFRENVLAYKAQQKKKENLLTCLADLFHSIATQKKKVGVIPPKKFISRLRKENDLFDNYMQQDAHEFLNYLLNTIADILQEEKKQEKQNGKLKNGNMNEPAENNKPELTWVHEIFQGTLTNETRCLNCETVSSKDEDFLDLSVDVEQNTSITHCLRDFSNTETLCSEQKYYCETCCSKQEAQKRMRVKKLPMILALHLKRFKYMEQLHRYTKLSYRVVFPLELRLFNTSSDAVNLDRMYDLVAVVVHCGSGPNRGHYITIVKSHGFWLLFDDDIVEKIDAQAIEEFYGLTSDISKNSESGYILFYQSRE
UniProt Q15836, whole entry, looked up: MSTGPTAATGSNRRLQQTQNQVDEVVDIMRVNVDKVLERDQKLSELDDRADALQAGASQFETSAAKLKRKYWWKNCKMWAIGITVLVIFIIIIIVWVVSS
UniProt O14957: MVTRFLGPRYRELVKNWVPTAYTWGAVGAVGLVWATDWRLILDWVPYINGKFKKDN
UniProt C9J7I0: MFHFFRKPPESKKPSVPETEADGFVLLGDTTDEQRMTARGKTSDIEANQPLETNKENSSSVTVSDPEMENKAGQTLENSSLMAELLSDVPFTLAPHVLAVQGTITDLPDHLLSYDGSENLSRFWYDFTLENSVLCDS
UniProt Q9H347: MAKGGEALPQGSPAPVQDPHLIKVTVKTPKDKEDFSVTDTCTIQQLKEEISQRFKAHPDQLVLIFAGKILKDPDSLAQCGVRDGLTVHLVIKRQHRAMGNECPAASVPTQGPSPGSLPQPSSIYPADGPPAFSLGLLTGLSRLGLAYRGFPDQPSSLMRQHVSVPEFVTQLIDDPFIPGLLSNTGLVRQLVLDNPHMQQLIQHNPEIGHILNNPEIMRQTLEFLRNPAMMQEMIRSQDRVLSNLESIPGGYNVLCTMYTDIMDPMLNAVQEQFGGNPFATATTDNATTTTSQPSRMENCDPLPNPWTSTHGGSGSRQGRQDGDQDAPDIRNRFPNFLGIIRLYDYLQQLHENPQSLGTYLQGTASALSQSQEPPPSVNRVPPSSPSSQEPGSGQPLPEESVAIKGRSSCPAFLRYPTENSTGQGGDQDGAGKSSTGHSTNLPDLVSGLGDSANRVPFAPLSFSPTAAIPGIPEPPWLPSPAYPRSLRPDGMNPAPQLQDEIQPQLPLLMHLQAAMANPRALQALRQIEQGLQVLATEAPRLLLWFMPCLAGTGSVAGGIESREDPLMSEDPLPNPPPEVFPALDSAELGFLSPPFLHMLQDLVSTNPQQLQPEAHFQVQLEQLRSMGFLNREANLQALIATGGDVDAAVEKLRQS
UniProt Q9Y5T5, whole entry, looked up: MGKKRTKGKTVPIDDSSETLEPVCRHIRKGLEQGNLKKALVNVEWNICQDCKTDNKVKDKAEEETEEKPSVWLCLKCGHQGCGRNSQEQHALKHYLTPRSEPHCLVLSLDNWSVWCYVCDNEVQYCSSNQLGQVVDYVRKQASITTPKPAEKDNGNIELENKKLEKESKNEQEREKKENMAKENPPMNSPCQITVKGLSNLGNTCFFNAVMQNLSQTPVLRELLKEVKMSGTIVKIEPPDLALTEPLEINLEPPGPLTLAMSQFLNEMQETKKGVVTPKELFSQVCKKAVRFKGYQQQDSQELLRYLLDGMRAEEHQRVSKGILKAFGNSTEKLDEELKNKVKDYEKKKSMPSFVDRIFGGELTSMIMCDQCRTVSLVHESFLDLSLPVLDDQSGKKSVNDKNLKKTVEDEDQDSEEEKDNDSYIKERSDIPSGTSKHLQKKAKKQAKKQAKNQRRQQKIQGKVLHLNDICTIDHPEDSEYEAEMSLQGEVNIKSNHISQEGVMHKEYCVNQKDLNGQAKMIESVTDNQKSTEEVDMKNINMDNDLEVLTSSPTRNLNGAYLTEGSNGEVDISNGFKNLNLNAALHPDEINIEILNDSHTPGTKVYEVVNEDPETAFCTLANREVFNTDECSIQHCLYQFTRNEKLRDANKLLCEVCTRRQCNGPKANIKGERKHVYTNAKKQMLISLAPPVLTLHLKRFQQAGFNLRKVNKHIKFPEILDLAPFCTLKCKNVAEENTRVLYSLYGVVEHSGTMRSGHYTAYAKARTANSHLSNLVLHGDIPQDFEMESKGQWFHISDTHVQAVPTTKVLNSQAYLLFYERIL

The list shows a part of the results.

Compound in one assay: CS(=O)(=O)c1ccc(-c2cnc(N)c(C(=O)Nc3ccccc3)n2)cc1
The assay is described as follows: log2 fold change, soluble protein after heating vs DMSO (PISA); higher = thermal stabilisation; K562 cells, 10 uM, 30 min; active = over 0.2 and 3.5 SD of the protein, either way, in both replicates (recomputed). In a few lines:
(§1)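 Values are thermal stability changes relative to control samples and are taken from duplicates. They are stated as log2 fold changes. Before quantification by TMTpro 16plex LC-MS/MS with equalised channel sums, K562 cells at 2×10^6 cells/mL were treated with 10 μM compound for 30 min, heated in aliquots for 3 min across 48°C-58°C, pooled, extracted in PBS with 0.5% NP-40 at 4°C, and centrifuged at 21,000xg for 90 min to give the soluble supernatant.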
In the case of ULBP2 (UniProt Q9BZM5), the log2 fold change is inactive: 0.01.
UGP2 (UniProt C9JWG0): the log2 fold change was inactive: 0.088.
With UTP18 (UniProt Q9Y5J1), the log2 fold change is inactive: 0.051.
UPF3A (UniProt Q9H1J1): the log2 fold change is inactive: -0.156.
The same measure, in the same setting: in the case of UNG (UniProt P13051) it was inactive: -0.04; in that of UFM1 isoform 2 (UniProt P61960), inactive: -0.009.
On the same count and under the same terms, under USF3 (UniProt Q68DE3) stands inactive: 0.195; under UBXN8 (UniProt O00124), inactive: 0.054.
With VASN (UniProt Q6EMK4), the log2 fold change is inactive: 0.069.
As for USP11 (UniProt P51784), the log2 fold change is inactive: -0.02.
The same measure, in the same setting: in the case of VCPIP1 (UniProt Q96JH7) it was inactive: -0.148; in that of ULBP1 (UniProt Q9BZM6), inactive: 0.188.
On to ULK3 isoform 4 (UniProt Q6PHR2), for which the log2 fold change is inactive: -0.088.
For the target USP33 (UniProt Q8TEY7), the log2 fold change is inactive: -0.067.
For the target UBR1 (UniProt Q8IWV7), the log2 fold change is inactive: 0.075.
For the target UNC13A (UniProt Q9UPW8), the log2 fold change was inactive: -0.113.
For USP46 (UniProt P62068), the log2 fold change is inactive: 0.007.
As to UTP14C (UniProt Q5TAP6), the log2 fold change is inactive: 0.103.
Same read-out and setting: in the case of USP48 (UniProt Q86UV5) it was inactive: 0.015.

Compound in another assay: C[C@@H](Oc1cc(-c2cnn(C3CCNCC3)c2)cnc1N)c1c(Cl)ccc(F)c1Cl [crizotinib]
The description is as above. Summed up: as §1
In the case of VAMP3 (UniProt Q15836), the log2 fold change is inactive: 0.016.
As to UQCR11 (UniProt O14957), the log2 fold change is inactive: -0.068.
On the same count and under the same terms, under UPP1 (UniProt Q16831) stands inactive: -0.144.
With UGP2 (UniProt C9JWG0), the log2 fold change is inactive: 0.038.
UTP18 (UniProt Q9Y5J1): the log2 fold change was inactive: -0.044.
As for UPF3A (UniProt Q9H1J1), the log2 fold change is inactive: 0.059.
Consider UBN2 (UniProt Q6ZU65), for which the log2 fold change was inactive: 0.008.
On the same count and under the same terms, under UMAD1 (UniProt C9J7I0) stands inactive: 0.018; under UBQLN3 (UniProt Q9H347), inactive: 0.002.
On the same count and under the same terms, in the case of USF3 (UniProt Q68DE3) it was inactive: 0.063; in that of USP4 (UniProt Q13107), inactive: -0.01.
As for USP16 (UniProt Q9Y5T5), the log2 fold change is inactive: 0.045.
URB2 (UniProt Q14146): the log2 fold change was inactive: -0.582.
On the same count and under the same terms, in the case of ULK3 isoform 4 (UniProt Q6PHR2) it was inactive: -0.403.
For the target USP46 (UniProt P62068), the log2 fold change was inactive: -0.012.
On to UTP14C (UniProt Q5TAP6), for which the log2 fold change was inactive: -0.248.

Compound in a further assay: C[C@@H]1COCCN1C2=NC(=NC(=C2)C3(CC3)S(=O)(=O)C)C4=C5C=CNC5=CC=C4
The description is as above. Summed up: as §1
For VAMP3 (UniProt Q15836), the log2 fold change was inactive: -0.048.
As to VAV1 (UniProt P15498), the log2 fold change is inactive: 0.016.
As to UNC5B (UniProt Q8IZJ1), the log2 fold change was inactive: -0.21.
ULBP2 (UniProt Q9BZM5): the log2 fold change is inactive: 0.08.
For the target UTP18 (UniProt Q9Y5J1), the log2 fold change was inactive: -0.115.
On to UPF3A (UniProt Q9H1J1), for which the log2 fold change is inactive: -0.283.
Take UNG (UniProt P13051): the log2 fold change is inactive: -0.143.
Regarding UFM1 isoform 2 (UniProt P61960), the log2 fold change is inactive: -0.065.
In the case of UBQLN3 (UniProt Q9H347), the log2 fold change was inactive: 0.203.
On the same count and under the same terms, under USF3 (UniProt Q68DE3) stands inactive: -0.021.
Still for that read-out and setting: under UBXN8 (UniProt O00124) stands inactive: -0.094.
Still for that read-out and setting: under UQCC3 (UniProt Q6UW78) stands inactive: 0.126.
Turning to VASN (UniProt Q6EMK4), the log2 fold change is inactive: -0.141.
The same measure, in the same setting: under USP11 (UniProt P51784) stands inactive: -0.315; under USP16 (UniProt Q9Y5T5), inactive: -0.349.
Turning to VCPIP1 (UniProt Q96JH7), the log2 fold change is inactive: -0.68.
For USP27X (UniProt A6NNY8), the log2 fold change was inactive: 0.15.
Same read-out and setting: under UTP20 (UniProt O75691) stands inactive: -0.379; under ULBP1 (UniProt Q9BZM6), inactive: 0.192; under ULK3 isoform 4 (UniProt Q6PHR2), inactive: 0.15.
Same read-out and setting: in the case of UBR1 (UniProt Q8IWV7) it was inactive: 0.024.
On to USP46 (UniProt P62068), for which the log2 fold change is inactive: 0.025.
On to UTP14C (UniProt Q5TAP6), for which the log2 fold change was inactive: 0.131.

Compound in another assay: C[C@H](C1=CC=C(C=C1)C(=O)NC2=C3C=CNC3=NC=C2)N
Described as above. Summed up:
as §1
As to VAMP3 (UniProt Q15836), the log2 fold change is inactive: -0.026.
For the target VAV1 (UniProt P15498), the log2 fold change is inactive: -0.078.
For the target ULBP2 (UniProt Q9BZM5), the log2 fold change was inactive: 0.312.
Consider UNG (UniProt P13051), for which the log2 fold change is inactive: -0.023.
The same measure, in the same setting: in the case of USB1 (UniProt Q9BQ65) it was inactive: -0.079; in that of UFM1 isoform 2 (UniProt P61960), inactive: -0.157; in that of UBN2 (UniProt Q6ZU65), inactive: 0.016.
With UMAD1 (UniProt C9J7I0), the log2 fold change was inactive: -0.264.
Consider USP12 (UniProt O75317), for which the log2 fold change was inactive: -0.101.
With UBQLN3 (UniProt Q9H347), the log2 fold change is inactive: 0.087.
Same read-out and setting: in the case of UBXN8 (UniProt O00124) it was inactive: 0.161; in that of UQCC3 (UniProt Q6UW78), inactive: 0.084.
On the same count and under the same terms, in the case of USP11 (UniProt P51784) it was inactive: 0.456.
USP16 (UniProt Q9Y5T5): the log2 fold change is inactive: 0.35.
On the same count and under the same terms, under URB2 (UniProt Q14146) stands inactive: 0.078; under UTP23 (UniProt Q9BRU9), inactive: 0.137; under USP27X (UniProt A6NNY8), inactive: -0.049.
Turning to ULBP1 (UniProt Q9BZM6), the log2 fold change was inactive: 0.156.
With UBR1 (UniProt Q8IWV7), the log2 fold change was inactive: 0.155.
